From article PMC8801411
Results are given in words; binding and its absence hold for the method and conditions named. In cells and extracts the contact can be indirect. Some results given as binding are weak or reduced against the parent protein; the word gives no strength. Where a sequence is shown, tags or fusion partners need not be part of it.

Key:
Assay in all cases: pull-down; GST-Gal80 fusions immobilised on GSH sepharose, incubated with bacterial (E. coli) total protein extracts containing HA3-Cyc8 or HA3-Tup1; washing of intermediary stringency; elution with 10 mM free GSH; SDS-PAGE and blot with anti-HA-peroxidase conjugate; only the target purified
[1] = molecular target: T1, GST-Gal80 aa 81-145 F120A (S. cerevisiae) (UniProt P04387)
T1 sequence: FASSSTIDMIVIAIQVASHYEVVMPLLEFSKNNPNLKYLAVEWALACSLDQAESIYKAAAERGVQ

[2] = molecular target: T2, GST-Gal80 (full-length) (S. cerevisiae) (UniProt P04387)
T2 sequence: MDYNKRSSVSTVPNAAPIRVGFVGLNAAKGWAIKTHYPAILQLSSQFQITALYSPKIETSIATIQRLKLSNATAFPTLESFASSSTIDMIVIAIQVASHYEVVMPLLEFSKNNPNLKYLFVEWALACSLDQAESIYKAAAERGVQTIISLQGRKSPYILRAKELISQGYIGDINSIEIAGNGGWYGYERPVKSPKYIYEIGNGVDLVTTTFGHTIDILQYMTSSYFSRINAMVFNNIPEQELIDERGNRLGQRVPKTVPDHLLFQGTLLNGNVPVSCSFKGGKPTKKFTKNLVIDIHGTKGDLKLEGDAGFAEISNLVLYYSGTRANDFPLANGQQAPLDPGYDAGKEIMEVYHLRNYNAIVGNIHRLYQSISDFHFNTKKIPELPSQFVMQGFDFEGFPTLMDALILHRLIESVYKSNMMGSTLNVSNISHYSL

[3] = molecular target: T3, GST-Gal80 aa 81-145 Y118A (S. cerevisiae) (UniProt P04387)
T3 sequence: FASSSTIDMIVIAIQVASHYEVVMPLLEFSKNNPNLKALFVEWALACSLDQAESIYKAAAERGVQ

[4] = molecular target: T4, GST-Gal80 aa 81-145 YLF-AAA (pos. 118-120) (S. cerevisiae) (UniProt P04387)
T4 sequence: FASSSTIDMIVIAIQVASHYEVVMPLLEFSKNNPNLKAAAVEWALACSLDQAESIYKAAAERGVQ

[5] = molecular target: T5, GST-Gal80 aa 81-145 W123A (S. cerevisiae) (UniProt P04387)
T5 sequence: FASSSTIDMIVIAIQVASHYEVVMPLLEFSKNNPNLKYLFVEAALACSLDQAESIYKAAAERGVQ

[6] = molecular target: T6, GST-Gal80 aa 146-290 (S. cerevisiae) (UniProt P04387)
T6 sequence: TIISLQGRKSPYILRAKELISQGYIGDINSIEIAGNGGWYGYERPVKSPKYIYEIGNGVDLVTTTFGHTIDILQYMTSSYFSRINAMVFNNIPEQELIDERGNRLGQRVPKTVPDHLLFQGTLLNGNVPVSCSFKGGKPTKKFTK

- binding [1]: binds
- binding [2]: binds
- binding [3]: binds
- binding [4]: binds
- binding [5]: binds
- binding [6]: binds
B1: HA3-Cyc8 (aa 1-398, TPR-containing domain) (domain or fragment, UniProt P14922 1-398)
chain: MNPGGEQTIMEQPAQQQQQQQQQQQQQQQQAAVPQQPLDPLTQSTAETWLSIASLAETLGDGDRAAMAYDATLQFNPSSAKALTSLAHLYRSRDMFQRAAELYERALLVNPELSDVWATLGHCYLMLDDLQRAYNAYQQALYHLSNPNVPKLWHGIGILYDRYGSLDYAEEAFAKVLELDPHFEKANEIYFRLGIIYKHQGKWSQALECFRYILPQPPAPLQEWDIWFQLGSVLESMGEWQGAKEAYEHVLAQNQHHAKVLQQLGCLYGMSNVQFYDPQKALDYLLKSLEADPSDATTWYHLGRVHMIRTDYTAAYDAFQQAVNRDSRNPIFWCSIGVLYYQISQYRDALDAYTRAIRLNPYISEVWYDLGTLYETCNNQLSDALDAYKQAARLDVNN
